Reference: patent US20140294856A1, “COMBINATION TREATMENT COMPRISING A HDAC6 INHIBITOR AND AN AKT INHIBITOR” (priority 2011, published 2014)

Tested on: HCT116 cells
Experiment: Combination studies, SRB assay, combination index (CalcuSyn)
Assay type: cell-based, human

Compound: O=C(CCCCCCC(=O)Nc1ccccc1)NO [SAHA, suberanoyl hydroxamic acid, reference compound]
- combination effect with inhibitors of the PI3K/AKT/mTOR pathway: synergises as well
